PubChem BioAssay AID504791, Drosophila RNAi Screening Center | 2011
The deposit covers about 23,000 reagents; shown is an unselected part of those with a known target gene and a result. Over the whole deposit, 199 (0.86%) got an active call. 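Plate-scaled ratios behind the calls are not deposited; printed light signals are raw; many rows marked increased or decreased are still called inactive.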 A number with no mark means an inactive call. A plus sign joins genes that one reagent is predicted to hit. Not stated in the record: the direction of the score.

Aim: 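Factors in Argonaute-based small RNA production and activity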 (primary screen)
Cells: Drosophila S2-derived reporter cells
Reagent: long dsRNA against Drosophila genes, about 150-250 ng dsRNA per well (siRNA assay); about 80-120 ng (miRNA assay)
Timing: about 5 days (siRNA assay); about 4 days (miRNA assay)
Challenge: copper sulfate induction of reporters: 25 µM (siRNA assay); 200 mM stated (miRNA assay), 1-2 days before reading
Detection: 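Per-well ratio of Renilla over firefly light, expressed relative to that plate's average ratio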
Units: stable assay Renilla, run 1 in luminescence; stable assay firefly, run 1 in luminescence
Rule for the call: 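a well was a first-pass pick when its plate-scaled ratio rose above 1.5 (siRNA assay) or 1.6 (miRNA assay), or dropped below 0.6; a gene counted only if two separate dsRNAs agreed on retest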

| predicted target | amplicon | stable assay Renilla, run 1 | stable assay firefly, run 1 |
| --- | --- | --- | --- |
| CG15614 | DRSC06567 | 5911 | 3.41e5 |
| Daao2 | DRSC02135 | 11359 | 2.32e5 |
| CG32152 | DRSC22906 | 3999 | 3.81e5 |
| Gos28 | DRSC16292 | 7384 | 3.58e5 |
| Gos28 | DRSC22859 | 5367 | 4.82e5 |
| Fkbp59 | DRSC03323 | 7272 | 3.98e5 |
| Nup50 | DRSC06827 | 10936 | 3.82e5 |
| CG34057 | DRSC08375 | 5504 | 3.78e5 |
| Nazo | DRSC14343 | 6083 | 4.39e5 |
| CG32271 | DRSC08198 | 6483 | 3.71e5 |
| CG16800 | DRSC02518 | 6662 | 3.14e5 |
| sn | DRSC18834 | 5615 | 2.73e5 |
| CG42821 + CG42822 | DRSC13231 | 3956 | 3.66e5 |
| CG42821 + CG42822 | DRSC13232 | 4699 | 5.11e5 |
| CG8852 | DRSC00719 | 6383 | 3.07e5 |

4 of these entries, set out differently.
predicted target	amplicon	stable assay Renilla, run 1	stable assay firefly, run 1
Nazo	DRSC14343	6083	4.39e5
CG32271	DRSC08198	6483	3.71e5
CG16800	DRSC02518	6662	3.14e5
sn	DRSC18834	5615	2.73e5

Further reagents follow:
| predicted target | amplicon | stable assay Renilla, run 1 | stable assay firefly, run 1 |
| --- | --- | --- | --- |
| Wnt4 | DRSC00976 | 4619 | 4.20e5 |
| Wnt4 | DRSC03477 | 6906 | 3.86e5 |
| CG18249 | DRSC15318 | 8531 | 5.06e5 |
| Ogdh | DRSC09854 | 10363 | 4.31e5 |
| Ogdh | DRSC09855 | 7594 | 4.45e5 |
| CG6414 | DRSC18401 | 5868 | 3.98e5 |
| CG4641 (retired record) | DRSC10439 | 5855 | 3.42e5 |
| scpr-A + scpr-C | DRSC15737 | 5592 | 3.94e5 |
| CG17600 | DRSC20638 | 4523 | 3.66e5 |
| CG17600 | DRSC20640 | 6040 | 4.06e5 |
| CG17600 | DRSC22753 | 3823 | 3.42e5 |
| Prosalpha4T1 | DRSC16800 | 7036 | 2.90e5 |
| Mocs2A + Mocs2B | DRSC13697 | 5559 | 6.15e5 |
| Mocs2A + Mocs2B | DRSC14219 | 7419 | 4.11e5 |
| CG9062 | DRSC07327 | 5967 | 3.26e5 |
| cyst | DRSC02023 | 36651 | 1.13e6 |
| CG42323 | DRSC19629 | 4656 | 3.85e5 |
| CG42323 | DRSC21397 | 11816 | 5.71e5 |
| CG13108 | DRSC02206 | 7919 | 4.29e5 |
